Earlier results, collected in patent US9840494B2, “Quinazoline derivative” (Tianjin Hemay Oncology Pharmaceutical Co., Ltd., priority 2013, dated 2017).
For at least one compound, name, drawing or mass did not settle the structure.

Test system: A431 human epidermal carcinoma
Details: A431 human epidermal carcinoma nude mice xenograft, 10 mg/kg; cited from earlier work

CN(C)C/C=C/C(=O)Nc1cc2c(Nc3ccc(F)c(Cl)c3)ncnc2cc1O[C@H]1CCOC1 [Afatinib]
pharmacological effect: no pharmacological effect
